Source: PMC10164591, “RNA binding proteins Smaug and Cup induce CCR4–NOT-dependent deadenylation of the nanos mRNA in a reconstituted system”
These are yes or no findings as the source states them, for the method shown. A result given as binding can be weak or reduced; the word gives no strength. For some assays here: Where a sequence is shown, tags or fusion partners need not be part of it. For some assays here: In cells and extracts the contact can be indirect. Each block holds one molecule with its values, some of them ahead of it.

How the values were obtained:
[1] = biological target: T1, Smaug (split-ubiquitin two-hybrid bait) (D. melanogaster) (UniProt Q23972); experiment: two-hybrid; split-ubiquitin yeast two-hybrid, NMY51 cells, Smaug as bait; growth on SC agar lacking Trp, Leu, His and adenine, three days
T1 sequence: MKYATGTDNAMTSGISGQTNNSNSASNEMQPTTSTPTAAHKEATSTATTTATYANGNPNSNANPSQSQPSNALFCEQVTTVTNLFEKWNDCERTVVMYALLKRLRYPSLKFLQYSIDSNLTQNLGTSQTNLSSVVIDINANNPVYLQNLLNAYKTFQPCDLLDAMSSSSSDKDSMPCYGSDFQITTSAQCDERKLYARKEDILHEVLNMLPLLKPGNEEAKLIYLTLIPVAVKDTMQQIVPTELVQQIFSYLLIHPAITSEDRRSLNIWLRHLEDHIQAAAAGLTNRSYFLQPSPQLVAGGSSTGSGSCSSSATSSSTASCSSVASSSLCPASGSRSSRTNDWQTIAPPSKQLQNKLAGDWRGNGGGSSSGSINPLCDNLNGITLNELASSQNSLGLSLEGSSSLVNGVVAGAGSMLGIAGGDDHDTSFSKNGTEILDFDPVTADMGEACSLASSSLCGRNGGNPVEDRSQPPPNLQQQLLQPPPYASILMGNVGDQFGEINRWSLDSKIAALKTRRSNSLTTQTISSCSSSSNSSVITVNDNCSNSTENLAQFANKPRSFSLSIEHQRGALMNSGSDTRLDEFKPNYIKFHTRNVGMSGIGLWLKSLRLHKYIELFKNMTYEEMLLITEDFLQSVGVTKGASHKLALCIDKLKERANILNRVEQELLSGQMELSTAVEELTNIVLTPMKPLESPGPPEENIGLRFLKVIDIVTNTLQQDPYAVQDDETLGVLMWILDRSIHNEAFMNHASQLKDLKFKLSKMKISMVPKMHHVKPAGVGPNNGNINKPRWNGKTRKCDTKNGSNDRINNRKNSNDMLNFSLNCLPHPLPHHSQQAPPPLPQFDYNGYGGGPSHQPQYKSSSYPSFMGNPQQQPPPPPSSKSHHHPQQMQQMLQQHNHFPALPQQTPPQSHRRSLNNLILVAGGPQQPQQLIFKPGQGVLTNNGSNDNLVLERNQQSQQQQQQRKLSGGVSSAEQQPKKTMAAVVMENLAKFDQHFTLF

[2] = biological target: CAF40-FLAG (D. melanogaster); experiment: co-purification (FLAG affinity chromatography) + SEC; six subunits co-expressed in Sf21 by co-infection with three baculoviruses; lysate on anti-FLAG M2 agarose (CAF40-FLAG, CCR4-FLAG), FLAG peptide elution, then Superose 6; 500 mM NaCl, 50 mM HEPES-NaOH, 10 mM potassium phosphate, pH 7.6, 10% sucrose
[3] = biological target: CCR4-FLAG (D. melanogaster); experiment: as above
[4] = biological target: ^DmCCR4–NOT_(MINI) complex (D. melanogaster); experiment: SEC; Smaug (15 μg) incubated with ^DmCCR4–NOT_(MINI) (15 μg) or buffer for 1 h at 8°C; Superose 6 (about 2.4 mL) in lysis buffer without PMSF and pepstatin A (500 mM NaCl, pH 7.6); fractions by Coomassie staining and western blot against Smaug; both purified

binding [1]: binds
Molecule: NOT3 C-terminal region (split-ubiquitin two-hybrid prey) (D. melanogaster) (domain or fragment)

binding [4]: binds
B2: Smaug-FLAG (protein, UniProt Q23972 1-999)
chain: T1 sequence

The next lines start with the molecule.

Molecule: NOT3 (split-ubiquitin two-hybrid prey) (D. melanogaster)
binding [1]: binds

B1: His8-NOT2 (protein, UniProt Q94547 1-585)
chain: MANLNFQQPPRSIANAALAGRTTGGFGGSSLAGHVTPTSGMFQTDFANSYPGTANYGQAPQQQQQQQQQPQLSPNRNAQLSVGGPAISSGNRNANLFGQRQFVERRAMQGLGSGPMSNMGNFMQTGRGGYGTGGGGGGPLNNFHVFGGGGGSDTSTPALLDPTEFPSLTNARGQNDQTLPQSNPLQPPGSKPYGNFFTSFGMVKQPTSEQSEFTMSNEDFPALPGTQNSDGTTNAVGSVAGTGGSGGASTENHLDGTEKPMNSIVVSGSASGSSGSNVGVVGGNGLGAVGSGIGGLAVGGGGGAGSSGGGGVGGNAASGVVGGSHVGLVGSNSGIGGVNSVPNSNAMMGVGGGLGSGSGSSGSGAGGEHLNDNSSNDKLVKSGVQTSPDGKVTNIPATMVNNQFGMVGLLTFIRAAETDPNLVTLSLGTDLTGLGLNLNSQESLHTTFAGPFVAQPCRAQDVEFNVPPEYLINFAIRDKLTAPVLKKLQEDLLFFLFYTNIGDMMQLMAAAELHSREWRYHVEEKIWITRIPGIDQYEKNGTKERGTFYYFDAQSWKRLSKVFQIDPEKLDKCPNISAFMNGQSV
binding [2]: binds | binding [3]: binds
